# Laboratory results: the supplement of paper PMC7666118
# Protein sequences, listed by entry. Tags and fused reporters are not part of them. Lines headed by an entry give the natural chain unless they say otherwise; changes in a name come on top.
# UniProt Q7Z403: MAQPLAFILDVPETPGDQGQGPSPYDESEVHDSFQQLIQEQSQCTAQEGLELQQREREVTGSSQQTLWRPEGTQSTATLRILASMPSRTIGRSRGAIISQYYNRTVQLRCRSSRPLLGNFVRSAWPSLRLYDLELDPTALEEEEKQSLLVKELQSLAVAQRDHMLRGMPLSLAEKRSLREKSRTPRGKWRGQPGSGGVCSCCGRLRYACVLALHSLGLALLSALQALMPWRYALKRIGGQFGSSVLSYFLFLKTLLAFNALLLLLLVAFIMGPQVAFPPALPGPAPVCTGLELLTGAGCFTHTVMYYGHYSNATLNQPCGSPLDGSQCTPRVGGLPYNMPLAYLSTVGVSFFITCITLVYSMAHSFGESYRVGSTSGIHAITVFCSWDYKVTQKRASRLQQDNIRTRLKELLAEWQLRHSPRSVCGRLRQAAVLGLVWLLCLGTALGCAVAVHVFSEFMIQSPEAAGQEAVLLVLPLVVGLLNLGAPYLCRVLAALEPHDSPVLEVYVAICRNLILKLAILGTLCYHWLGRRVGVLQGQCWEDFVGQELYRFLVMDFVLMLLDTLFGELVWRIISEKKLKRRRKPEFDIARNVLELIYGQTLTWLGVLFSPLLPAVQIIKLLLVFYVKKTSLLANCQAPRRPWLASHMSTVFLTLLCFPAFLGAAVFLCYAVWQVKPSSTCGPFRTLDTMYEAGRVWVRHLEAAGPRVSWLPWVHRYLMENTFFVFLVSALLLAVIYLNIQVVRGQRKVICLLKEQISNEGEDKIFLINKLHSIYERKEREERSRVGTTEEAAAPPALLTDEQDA
# UniProt O00220, whole entry: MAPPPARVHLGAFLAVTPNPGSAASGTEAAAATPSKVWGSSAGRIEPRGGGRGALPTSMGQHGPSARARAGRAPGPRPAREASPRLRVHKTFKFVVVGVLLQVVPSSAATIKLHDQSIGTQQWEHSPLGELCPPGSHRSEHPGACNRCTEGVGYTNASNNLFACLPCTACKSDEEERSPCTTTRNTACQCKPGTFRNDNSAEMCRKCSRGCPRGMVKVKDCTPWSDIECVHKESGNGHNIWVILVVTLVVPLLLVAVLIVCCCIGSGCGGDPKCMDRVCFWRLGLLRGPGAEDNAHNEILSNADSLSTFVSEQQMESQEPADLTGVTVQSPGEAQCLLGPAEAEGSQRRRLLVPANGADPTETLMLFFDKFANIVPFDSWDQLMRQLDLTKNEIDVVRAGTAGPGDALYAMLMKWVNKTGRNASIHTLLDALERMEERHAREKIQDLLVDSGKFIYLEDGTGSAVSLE
# UniProt P01137, whole entry: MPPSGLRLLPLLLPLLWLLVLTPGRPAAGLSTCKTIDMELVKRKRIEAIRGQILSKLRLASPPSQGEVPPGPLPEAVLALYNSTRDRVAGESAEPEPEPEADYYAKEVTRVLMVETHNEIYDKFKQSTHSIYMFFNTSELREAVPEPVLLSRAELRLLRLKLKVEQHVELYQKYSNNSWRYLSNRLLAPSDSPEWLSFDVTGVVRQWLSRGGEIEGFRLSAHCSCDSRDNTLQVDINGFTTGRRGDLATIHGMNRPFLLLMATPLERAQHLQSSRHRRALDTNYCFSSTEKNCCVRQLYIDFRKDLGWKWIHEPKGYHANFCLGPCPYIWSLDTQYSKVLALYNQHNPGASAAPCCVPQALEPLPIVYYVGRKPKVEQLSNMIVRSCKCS
# UniProt Q86WV6: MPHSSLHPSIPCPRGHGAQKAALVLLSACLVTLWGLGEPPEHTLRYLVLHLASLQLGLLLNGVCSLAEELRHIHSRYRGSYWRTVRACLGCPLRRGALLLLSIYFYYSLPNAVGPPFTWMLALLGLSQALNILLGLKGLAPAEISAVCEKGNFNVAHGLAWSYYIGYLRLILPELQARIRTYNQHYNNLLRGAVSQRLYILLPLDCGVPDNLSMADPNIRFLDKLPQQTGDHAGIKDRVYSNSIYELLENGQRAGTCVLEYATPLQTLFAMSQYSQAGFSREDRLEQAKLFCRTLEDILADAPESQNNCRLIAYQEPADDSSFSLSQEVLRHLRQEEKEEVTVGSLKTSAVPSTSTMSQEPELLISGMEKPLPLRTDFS
# UniProt Q9NX00: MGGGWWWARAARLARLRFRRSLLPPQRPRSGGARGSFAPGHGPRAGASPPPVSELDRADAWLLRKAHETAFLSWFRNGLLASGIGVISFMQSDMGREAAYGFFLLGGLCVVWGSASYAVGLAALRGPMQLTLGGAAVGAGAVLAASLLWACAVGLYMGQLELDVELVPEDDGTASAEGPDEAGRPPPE
# UniProt Q9Y3A6: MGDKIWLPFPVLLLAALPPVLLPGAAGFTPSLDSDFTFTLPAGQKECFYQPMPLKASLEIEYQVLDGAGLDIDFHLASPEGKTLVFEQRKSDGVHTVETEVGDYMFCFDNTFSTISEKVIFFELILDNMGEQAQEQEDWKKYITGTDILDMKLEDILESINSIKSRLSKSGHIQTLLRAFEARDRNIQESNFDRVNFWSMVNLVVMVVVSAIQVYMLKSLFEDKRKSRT
# UniProt Q8N4H5: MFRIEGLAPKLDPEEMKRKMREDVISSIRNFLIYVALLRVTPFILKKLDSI
# UniProt Q9C0C2: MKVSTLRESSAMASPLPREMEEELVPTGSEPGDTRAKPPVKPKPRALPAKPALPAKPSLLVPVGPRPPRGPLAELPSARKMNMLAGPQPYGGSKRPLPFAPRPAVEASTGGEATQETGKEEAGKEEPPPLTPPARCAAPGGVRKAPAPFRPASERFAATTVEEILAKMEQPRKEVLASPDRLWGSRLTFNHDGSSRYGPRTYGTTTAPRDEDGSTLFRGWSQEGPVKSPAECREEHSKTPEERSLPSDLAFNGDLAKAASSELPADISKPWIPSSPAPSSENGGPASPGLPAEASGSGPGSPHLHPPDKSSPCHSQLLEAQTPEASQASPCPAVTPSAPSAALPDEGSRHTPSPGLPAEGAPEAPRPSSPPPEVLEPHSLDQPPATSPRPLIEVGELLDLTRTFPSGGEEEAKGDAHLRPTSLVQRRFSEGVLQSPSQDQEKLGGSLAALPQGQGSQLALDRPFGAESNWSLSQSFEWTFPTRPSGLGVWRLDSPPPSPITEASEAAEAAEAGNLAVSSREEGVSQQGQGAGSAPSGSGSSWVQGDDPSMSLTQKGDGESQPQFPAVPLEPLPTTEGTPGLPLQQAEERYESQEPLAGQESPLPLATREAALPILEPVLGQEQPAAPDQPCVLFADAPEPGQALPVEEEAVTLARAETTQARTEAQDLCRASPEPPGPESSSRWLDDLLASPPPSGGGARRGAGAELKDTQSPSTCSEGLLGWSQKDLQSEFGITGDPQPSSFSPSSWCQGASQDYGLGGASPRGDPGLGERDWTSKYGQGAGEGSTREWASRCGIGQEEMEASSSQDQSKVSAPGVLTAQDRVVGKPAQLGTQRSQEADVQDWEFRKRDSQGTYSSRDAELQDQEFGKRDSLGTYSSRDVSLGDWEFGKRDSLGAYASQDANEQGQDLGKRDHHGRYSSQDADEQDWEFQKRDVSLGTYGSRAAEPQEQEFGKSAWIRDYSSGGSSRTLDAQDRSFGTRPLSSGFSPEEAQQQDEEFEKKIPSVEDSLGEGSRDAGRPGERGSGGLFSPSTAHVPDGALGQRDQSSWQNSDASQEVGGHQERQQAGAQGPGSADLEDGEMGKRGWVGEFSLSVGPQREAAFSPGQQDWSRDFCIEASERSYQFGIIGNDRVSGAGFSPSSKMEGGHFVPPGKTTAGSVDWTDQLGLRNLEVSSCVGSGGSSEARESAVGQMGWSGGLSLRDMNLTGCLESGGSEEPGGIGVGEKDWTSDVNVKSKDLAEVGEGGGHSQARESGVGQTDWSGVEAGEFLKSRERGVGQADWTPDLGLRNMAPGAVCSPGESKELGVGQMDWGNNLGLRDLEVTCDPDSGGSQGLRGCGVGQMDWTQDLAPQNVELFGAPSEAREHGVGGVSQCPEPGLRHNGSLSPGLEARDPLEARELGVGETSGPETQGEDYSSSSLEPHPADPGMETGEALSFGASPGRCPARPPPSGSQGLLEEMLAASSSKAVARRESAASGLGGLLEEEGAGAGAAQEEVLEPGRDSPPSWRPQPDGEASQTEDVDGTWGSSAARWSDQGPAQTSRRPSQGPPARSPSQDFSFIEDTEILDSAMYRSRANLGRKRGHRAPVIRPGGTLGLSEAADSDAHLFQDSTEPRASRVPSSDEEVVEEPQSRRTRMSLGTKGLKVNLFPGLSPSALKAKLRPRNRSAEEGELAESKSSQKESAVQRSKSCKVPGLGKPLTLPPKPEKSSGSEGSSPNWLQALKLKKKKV
# UniProt Q96S44: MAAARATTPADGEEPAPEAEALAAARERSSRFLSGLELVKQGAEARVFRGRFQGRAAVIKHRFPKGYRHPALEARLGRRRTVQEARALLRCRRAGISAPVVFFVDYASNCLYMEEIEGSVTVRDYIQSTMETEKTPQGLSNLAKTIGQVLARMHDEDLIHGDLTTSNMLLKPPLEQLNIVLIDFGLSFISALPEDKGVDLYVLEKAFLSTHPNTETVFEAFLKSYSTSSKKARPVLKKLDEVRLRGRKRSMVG
# UniProt Q66K14, whole entry: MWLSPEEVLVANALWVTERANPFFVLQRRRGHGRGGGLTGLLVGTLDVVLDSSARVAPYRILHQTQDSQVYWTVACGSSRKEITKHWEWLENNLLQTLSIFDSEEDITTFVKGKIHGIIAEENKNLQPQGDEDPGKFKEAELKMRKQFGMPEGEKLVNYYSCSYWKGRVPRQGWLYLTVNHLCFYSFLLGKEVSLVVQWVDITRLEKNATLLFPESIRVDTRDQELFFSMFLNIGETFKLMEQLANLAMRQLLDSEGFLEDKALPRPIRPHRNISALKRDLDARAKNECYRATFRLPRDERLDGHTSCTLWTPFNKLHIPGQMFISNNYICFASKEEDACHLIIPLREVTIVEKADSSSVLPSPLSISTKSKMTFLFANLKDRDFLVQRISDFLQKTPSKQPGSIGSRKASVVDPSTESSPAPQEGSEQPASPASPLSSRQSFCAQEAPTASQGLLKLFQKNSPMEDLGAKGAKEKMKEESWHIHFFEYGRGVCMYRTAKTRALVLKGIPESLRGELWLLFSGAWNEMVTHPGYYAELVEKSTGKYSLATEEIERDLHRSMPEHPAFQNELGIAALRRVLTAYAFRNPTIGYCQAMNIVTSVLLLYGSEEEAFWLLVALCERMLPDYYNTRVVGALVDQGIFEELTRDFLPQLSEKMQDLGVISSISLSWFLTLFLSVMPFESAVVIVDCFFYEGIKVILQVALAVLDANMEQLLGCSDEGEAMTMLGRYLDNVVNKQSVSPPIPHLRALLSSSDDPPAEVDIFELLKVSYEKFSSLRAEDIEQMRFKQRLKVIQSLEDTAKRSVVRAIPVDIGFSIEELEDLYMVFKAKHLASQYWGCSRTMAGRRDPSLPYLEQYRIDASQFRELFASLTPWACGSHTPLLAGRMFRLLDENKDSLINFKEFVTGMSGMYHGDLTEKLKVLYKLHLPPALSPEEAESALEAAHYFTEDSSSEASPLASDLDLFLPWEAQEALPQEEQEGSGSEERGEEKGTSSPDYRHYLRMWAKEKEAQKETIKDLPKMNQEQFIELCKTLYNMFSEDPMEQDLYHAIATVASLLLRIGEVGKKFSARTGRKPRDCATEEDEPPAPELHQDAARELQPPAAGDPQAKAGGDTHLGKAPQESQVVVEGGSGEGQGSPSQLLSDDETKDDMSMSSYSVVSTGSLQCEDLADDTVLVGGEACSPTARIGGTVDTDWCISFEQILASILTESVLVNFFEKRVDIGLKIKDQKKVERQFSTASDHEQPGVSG
# UniProt Q9BU02: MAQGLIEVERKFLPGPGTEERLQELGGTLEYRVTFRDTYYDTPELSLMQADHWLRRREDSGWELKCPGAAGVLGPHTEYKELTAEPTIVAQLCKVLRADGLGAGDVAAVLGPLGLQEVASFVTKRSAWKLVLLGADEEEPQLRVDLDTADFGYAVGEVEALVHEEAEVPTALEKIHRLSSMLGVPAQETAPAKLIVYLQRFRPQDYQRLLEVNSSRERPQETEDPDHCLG
# UniProt P29401: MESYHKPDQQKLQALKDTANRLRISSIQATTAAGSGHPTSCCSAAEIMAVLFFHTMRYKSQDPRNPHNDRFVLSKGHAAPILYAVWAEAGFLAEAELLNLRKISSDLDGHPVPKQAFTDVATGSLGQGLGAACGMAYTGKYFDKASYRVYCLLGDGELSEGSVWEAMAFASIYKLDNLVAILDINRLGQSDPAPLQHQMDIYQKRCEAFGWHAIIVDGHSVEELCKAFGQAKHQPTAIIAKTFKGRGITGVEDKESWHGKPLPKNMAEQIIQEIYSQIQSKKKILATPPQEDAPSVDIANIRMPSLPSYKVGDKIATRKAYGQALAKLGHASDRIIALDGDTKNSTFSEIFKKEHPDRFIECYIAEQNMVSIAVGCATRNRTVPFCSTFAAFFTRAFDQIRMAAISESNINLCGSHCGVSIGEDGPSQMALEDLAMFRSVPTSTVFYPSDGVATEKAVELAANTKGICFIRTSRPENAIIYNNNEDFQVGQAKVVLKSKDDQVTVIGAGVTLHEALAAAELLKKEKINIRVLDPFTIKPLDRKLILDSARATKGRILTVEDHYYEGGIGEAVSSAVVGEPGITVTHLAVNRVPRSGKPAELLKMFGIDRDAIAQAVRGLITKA
# The other results are listed elsewhere or left out.
# Compound: COc1ccc(Cn2ccc3ccc(C(=O)NO)cc32)cc1
# Experiment: dose-dependent thermal stabilisation call (2D-TPP, DLPTP, 10% FDR) (binary (1 = stabilised)); higher = stabilised by the compound
# Details: system: HL-60 intact cells; concentration range 0.04-10 µM
row,Target,dose-dependent thermal stabilisation call
1,TMC6 (UniProt Q7Z403),inactive: 0
2,TNFRSF10A (UniProt O00220),inactive: 0
3,TGFB1 (UniProt P01137),inactive: 0
4,TCEA1 (UniProt P23193),inactive: 0
5,TBL3 (UniProt Q12788),inactive: 0
6,TERF2IP (UniProt Q9NYB0),inactive: 0
7,TBRG4 (UniProt Q969Z0),inactive: 0
8,TMEM173 (UniProt Q86WV6),inactive: 0
9,TAF9 (UniProt Q16594),inactive: 0
10,TOMM40L (UniProt Q969M1),inactive: 0
11,TBCD (UniProt Q9BTW9),inactive: 0
12,TATDN2 (UniProt Q93075),inactive: 0
13,TMEM160 (UniProt Q9NX00),inactive: 0
14,TEX10 (UniProt Q9NXF1),inactive: 0
15,TMED5 (UniProt Q9Y3A6),inactive: 0
16,TOMM5 (UniProt Q8N4H5),inactive: 0
17,TJAP1 (UniProt Q5JTD0),inactive: 0
18,TOR3A (UniProt Q9H497),inactive: 0
19,TMCO7 (UniProt Q9C0B7),inactive: 0

# 2 records picked at random from those above:
row,Target,dose-dependent thermal stabilisation call
2,TNFRSF10A (UniProt O00220),inactive: 0
18,TOR3A (UniProt Q9H497),inactive: 0

# The list continues:

row,Target,dose-dependent thermal stabilisation call
1,THOC4 (UniProt Q86V81),inactive: 0
2,TOMM22 (UniProt Q9NS69),inactive: 0
3,TNKS1BP1 (UniProt Q9C0C2),inactive: 0
4,TGOLN2 (UniProt O43493),inactive: 0
5,TP53RK (UniProt Q96S44),inactive: 0
6,TBCE (UniProt Q15813),inactive: 0
7,TIMELESS (UniProt Q9UNS1),inactive: 0
8,TMEM38B (UniProt Q9NVV0),inactive: 0
9,TPR (UniProt P12270),inactive: 0
10,TBC1D9B (UniProt Q66K14),inactive: 0
11,TMED2 (UniProt Q15363),inactive: 0
12,TPCN1 (UniProt Q9ULQ1),inactive: 0
13,THTPA (UniProt Q9BU02),inactive: 0
14,TKT (UniProt P29401),inactive: 0
15,TMEM214 (UniProt Q6NUQ4),inactive: 0
16,TOR1AIP1 (UniProt Q5JTV8),inactive: 0
17,TMPO,inactive: 0
18,TMEM63A (UniProt O94886),inactive: 0
19,TALDO1 (UniProt P37837),inactive: 0
